Data set [1] concerns T. gondii RH strain (type I) tachyzoites. Briefly: Antiproliferative assay, tachyzoites of RH strain in LLC-MK2 cells. The class given is cell-based. Particulars: Toxoplasma gondii.
In data set [2] the test system is T. gondii EGS strain (atypical, I/III). Briefly: Antiproliferative assay, tachyzoites of EGS strain. The class given is cell-based. Particulars: Toxoplasma gondii, 48 h.
A further data set concerns NDHF fibroblasts. The data set is described as follows: Cytotoxicity assay in host cells. The class given is cell-based, Human. The following applies: CC50 in NDHF after 120 h.
Another data set concerns T. gondii. Particulars: read-out: IC50 against T. gondii; ref Strobl et al., 2007; cited from earlier work.

Read-outs that look alike come from different tables or passages of the source.

In general, IC90 refers to the point of the concentration-response curve where the effect stands at 90%. Read a high IC90 as a need for much substance. For orientation: IC50 means the point on the concentration scale where inhibition reaches its midpoint.

On to `O=C(CCCCCCC(=O)Nc1ccccc1)NO` [SAHA, Suberoylanilide Hydroxamic Acid], for which, in data set [1] (LLC-MK2), the concentration for an effect of 90% (IC90) is 200 nM. Also, the half-maximal inhibitory concentration (IC50) in data set [1] (LLC-MK2, 24 h) was 41 ± 3 nM; in data set [1] (LLC-MK2, 48 h), 67 ± 36 nM; in data set [1] (LLC-MK2, 48 h, read-out: T. gondii RH IC50), 70 nM; in data set [2], 44 ± 11 nM; in data set [2] (read-out: T. gondii EGS IC50), 40 nM; in the data set on T. gondii, 83 nM. Besides, the “CC50 times higher than the IC50 obtained for T. gondii” value in the data set on NDHF fibroblasts is given as 97 times.

These data come from article PMC7771113 (International Journal for Parasitology: Drugs and Drug …, 2020).
